In PubChem BioAssay AID743255 (National Center for Advancing Translational Sciences (NCATS), 2014):
Among all 390,000 compounds or so, about 910 (0.23%) were called active. The inconclusive results got no clear call from the source; some entries with a clear call stand among them for comparison. The call rests on the fitted dose curve; in most records, active means well fitted inhibition curve with a large enough effect; inconclusive means small, poorly fitted or top-dose-only effect; inactive means no such curve, though single readings can be large or run the other way. Where the call is inconclusive, the potency comes from a doubtful curve fit.

By UniProt entry, the sequences of proteins in these tests, tags left out. Where a name states a change or a piece, a line headed by the entry shows the natural chain unless it says otherwise.
UniProt O94782: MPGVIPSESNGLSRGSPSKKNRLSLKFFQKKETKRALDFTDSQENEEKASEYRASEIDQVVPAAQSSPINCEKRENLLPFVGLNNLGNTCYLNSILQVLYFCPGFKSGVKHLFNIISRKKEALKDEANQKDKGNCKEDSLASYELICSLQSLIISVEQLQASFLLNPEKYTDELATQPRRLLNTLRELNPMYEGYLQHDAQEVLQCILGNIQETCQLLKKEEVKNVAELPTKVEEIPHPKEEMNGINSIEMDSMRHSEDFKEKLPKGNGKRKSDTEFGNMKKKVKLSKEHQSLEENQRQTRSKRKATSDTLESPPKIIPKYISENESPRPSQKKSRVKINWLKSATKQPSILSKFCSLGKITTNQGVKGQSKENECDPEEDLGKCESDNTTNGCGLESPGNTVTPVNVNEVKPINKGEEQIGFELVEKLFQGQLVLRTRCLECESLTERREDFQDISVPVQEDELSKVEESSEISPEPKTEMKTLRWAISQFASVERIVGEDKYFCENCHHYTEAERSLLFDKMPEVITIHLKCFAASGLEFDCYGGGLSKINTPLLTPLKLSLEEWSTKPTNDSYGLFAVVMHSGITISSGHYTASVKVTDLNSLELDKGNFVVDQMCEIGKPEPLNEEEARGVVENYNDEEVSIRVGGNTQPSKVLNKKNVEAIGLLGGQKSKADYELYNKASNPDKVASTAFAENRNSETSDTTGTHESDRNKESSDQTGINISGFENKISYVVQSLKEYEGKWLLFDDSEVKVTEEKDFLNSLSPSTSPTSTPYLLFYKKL

target: Ubiquitin carboxyl-terminal hydrolase 1 (Homo sapiens) (UniProt O94782); experiment: Inhibitors of USP1/UAF1: Primary Screen; settings: recombinant USP1/UAF1, Ub-Rhodamine cleavage fluorescence; series mostly up to 57.1 µM; further: nearly all actives have a fitted effect of over 60% in size
Procedure, shortened: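 1 nM enzyme complex + cpd, 15 min RT; start with Ub-Rho 150nM final; kinetic fluorescence ex 480/em 540, 6 reads q60 s. Buffer 50mM HEPES pH 7.8, 0.5mM EDTA, 0.1 mg/ml BSA, 1mM TCEP, 0.01% Tween-20.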
Potency means the concentration at half of the fitted maximal effect.

Potency, inconclusive:
CCCCNC(=O)CCCN1C(=O)CCn2nc(-c3cccn3C)cc21 0.316 µM [inhibitor, full curve, poor fit]
Fc1cccc(NCc2ccccc2-c2nnc(-c3ccccc3Cl)o2)c1 31.6 µM [inhibitor, partial curve, poor fit]
CCOc1ccc(OCC(=O)OCC(=O)Nc2ccc3[nH]c(=O)[nH]c3c2)cc1 5.62 µM [inhibitor, partial curve, poor fit]
O=C(Nc1cccc(-c2nc3cccnc3s2)c1)C1c2ccccc2Oc2ccccc21 44.7 µM [inhibitor, partial curve, poor fit]
C=CCOc1ccc2c(c1)CCC1C2CCC2(C)C(O)C(O)CC12 (stereo unspecified) 5.01 µM [inhibitor, full curve, poor fit]
COC(=O)c1cc(N2CCN(C)CC2)nc2ccccc12 25.1 µM [inhibitor, partial curve]
O=C(Cn1nnc(-c2ccccc2F)n1)Nc1ccc(S(=O)(=O)NC2CCCC2)cc1 1.41 µM [inhibitor, full curve]
COc1cccc(OCCCn2c(-c3ccc(Cl)cc3)nc3ccccc3c2=O)c1 0.562 µM [inhibitor, full curve, poor fit]
O=C(Nc1cccc(Cl)c1)C1CCN(c2nc3ccccc3nc2C(F)(F)F)CC1 0.126 µM [inhibitor, full curve, poor fit]
O=C(NCc1ccccc1Cl)c1ccc2c(c1)N(Cc1ccccc1)C(=O)c1ccccc1S2 0.316 µM [inhibitor, full curve, poor fit]
COc1cc(OC)cc(C(=O)NCCc2csc(-c3cccc(C)c3)n2)c1 15.8 µM [inhibitor, partial curve, poor fit]
Cc1c(C(=O)Nc2cccc(F)c2)sc2nc(-c3cc4ccccc4oc3=O)[nH]c(=O)c12 31.6 µM [inhibitor, single point]
COc1ccc(NC(=O)c2c(NCc3cccs3)sc3c2CCCCC3)cc1 63.1 µM [inhibitor, single point]
COc1cccc(C(c2sc3nc(-c4ccco4)nn3c2O)N2CCCC2)c1 (stereo unspecified) 0.251 µM [inhibitor, full curve, poor fit]
Cc1ccc(-c2ccccc2[C@@H]2C[C@H]3CN(C)C(=O)[C@]34CCCN24)o1 44.7 µM [inhibitor, partial curve, poor fit]
CC(=O)c1cccc(NC(=O)C(C)OC(=O)CCc2nc3ccccc3c(=O)[nH]2)c1 (stereo unspecified) 4.47 µM [inhibitor, full curve, poor fit]
O=C(c1ccc2c(c1)CCN2S(=O)(=O)c1ccc(Cl)cc1)N1CCN(c2ccccc2F)CC1 50.1 µM [inhibitor, partial curve, poor fit]
CCN(CC)S(=O)(=O)c1ccc(/C(O)=C(\C#N)c2nc3ccccc3n2C)cc1 0.708 µM [inhibitor, full curve]
COc1ccccc1NS(=O)(=O)c1cc(C(=O)NCCN2CCOCC2)ccc1Cl 12.6 µM [inhibitor, partial curve]
Cc1ccccc1NC(=O)c1sc2nc3c(c(-c4ccco4)c2c1N)CCCC3 39.8 µM [inhibitor, partial curve, poor fit]
O=C(COC(=O)c1cc(=O)[nH]c2ccccc12)Nc1ccc(F)cc1F 4.47 µM [inhibitor, full curve, poor fit]
Cc1ccccc1NC(=O)CSc1cn(CC(=O)N2CCCCCC2)c2ccccc12 0.251 µM [inhibitor, full curve, poor fit]
Cc1ccc(N2C(=O)CSC23C(=O)N(Cc2ccccc2F)c2ccccc23)cc1F (stereo unspecified) 3.55 µM [inhibitor, full curve, poor fit]
CCC(CO)Oc1cc(NCc2ccccc2C(F)(F)F)c2ncn(C(C)C)c2c1 (stereo unspecified) 39.8 µM [inhibitor, partial curve]
CCn1c(=O)c(=O)[nH]c2cc(C(=O)NCc3ccc(F)cc3)ccc21 35.5 µM [inhibitor, partial curve, poor fit]
COc1ccc(NC(=O)/C(C#N)=C\c2ccc(N3CCOCC3)o2)cc1 39.8 µM [inhibitor, partial curve, poor fit]
O=C(O)CC(C(=O)Nc1ccc(Cl)c(Cl)c1)C1CCCO1 (stereo unspecified) 12.6 µM [inhibitor, partial curve]
CC(C)(C)C(=O)O/N=C(\N)c1c(Cl)cccc1Cl 35.5 µM [inhibitor, partial curve]
CC[C@@]12C(=O)N(c3ccc(OC)cc3)C(=O)N1[C@H](c1cccc(C)c1)[C@@H]1C(=O)N(Cc3ccccc3)C(=O)[C@@H]12 44.7 µM [inhibitor, partial curve]
O=C(NCCc1ccccc1)C(=O)NCC(c1ccco1)S(=O)(=O)c1cccs1 (stereo unspecified) 44.7 µM [inhibitor, partial curve, poor fit]
COc1cc(Nc2nc(SCC(=O)c3ccc(Cl)c(Cl)c3)nc3ccccc23)cc(OC)c1 5.62 µM [inhibitor, partial curve]
O=c1c(C(c2ccc(Cl)cc2)c2c(O)nc3n(c2=O)CCCS3)c(O)nc2n1CCCS2 2 µM [inhibitor, partial curve]
C=CCNC(=O)C12CCC(C)(C(=O)[C@H]1Br)C2(C)C (stereo partly specified) 56.2 µM [inhibitor, single point]
CCC/C(C#Cc1ccc(N(C)C)cc1)=C1/c2ccccc2C(=O)N1c1ccccc1 31.6 µM [inhibitor, partial curve, poor fit]
CCN1C(=O)[C@H]2[C@@H](c3ccc(C)cc3)N3C(=O)N(c4ccc(C)cc4)C(=O)[C@@]3(Cc3ccc(Cl)cc3)[C@H]2C1=O 50.1 µM [inhibitor, partial curve, poor fit]
COc1cc(OC)cc(-c2cc3ncccc3cn2)c1 3.16 µM [inhibitor, full curve, poor fit]
CN(C)S(=O)(=O)Oc1ccsc1C(=O)Nc1ccc(Br)cc1 8.91 µM [inhibitor, partial curve, poor fit]
COc1ccc(C2/C=C\CN(C(=O)CC(C)C)CC(=O)N2Cc2ccc(F)cc2)cc1 (stereo unspecified) 2.51 µM [inhibitor, full curve]
Cc1ccc(CNC(=O)c2ccc(CS(=O)(=O)Cc3ccc(C)cc3)o2)cc1 2.51 µM [inhibitor, full curve]
CC(CNC(=O)Cn1ccc(NC(=O)OCc2ccccc2)nc1=O)c1ccccc1 (stereo unspecified) 2.51 µM [inhibitor, full curve, poor fit]
O=C(O)c1nn(CCOc2ccc(Br)cc2)c(=O)c2ccccc12 17.8 µM [inhibitor, partial curve]
c1ccc(-c2cn(C[C@H]3CC[C@@H]([C@@H]4CC[C@H](Cn5cc(-c6ccccc6)nn5)O4)O3)nn2)cc1 0.251 µM [inhibitor, full curve, poor fit]
Cc1ccc(C)c(OCCC(=O)Nc2cc(S(=O)(=O)N3CCCCC3)ccc2C)c1 44.7 µM [inhibitor, partial curve, poor fit]
Cc1ccc(C(=O)c2cn(Cc3ccccc3)c3nc(C)ccc3c2=O)cc1 112 µM [inhibitor, partial curve, poor fit]
Cc1cccc(N(CC(=O)NCCSCc2ccccc2)S(=O)(=O)c2ccccc2)c1C 141 µM [inhibitor, partial curve, poor fit]
CC(Oc1ccc2c(-c3ccccc3)cc(=O)oc2c1)C(=O)NC(Cc1c[nH]c2ccccc12)C(=O)O (stereo unspecified) 39.8 µM [inhibitor, partial curve, poor fit]

Reprinted at random: 4 compounds from above, in no set order.
Potency, inconclusive:
CCN(CC)S(=O)(=O)c1ccc(/C(O)=C(\C#N)c2nc3ccccc3n2C)cc1 0.708 µM [inhibitor, full curve]
O=c1c(C(c2ccc(Cl)cc2)c2c(O)nc3n(c2=O)CCCS3)c(O)nc2n1CCCS2 2 µM [inhibitor, partial curve]
O=C(NCCc1ccccc1)C(=O)NCC(c1ccco1)S(=O)(=O)c1cccs1 (stereo unspecified) 44.7 µM [inhibitor, partial curve, poor fit]
CN(C)S(=O)(=O)Oc1ccsc1C(=O)Nc1ccc(Br)cc1 8.91 µM [inhibitor, partial curve, poor fit]

Following part.

Potency, active:
CN(C)c1ccc(/C=C2\CCC/C(=C\c3ccccc3)C2=O)cc1 31.6 µM

Potency, inactive:
O=C(CN1CCCCC1)Nc1ccc(NC(=O)c2ccc(Cl)cc2)cc1Cl
COC(=O)C1=C(C)N(C2CCCCC2)C(=O)/C1=C\c1cccs1
S=C(Nc1ccccc1)N1CCC(Cc2ccccc2)CC1
NC(=O)Cn1nnc(-c2ccc(CN3CCCCC3)cc2)n1
COc1cc(OC)c(NC(=O)c2cc3c(=O)oc4ccc(C)cc4c3s2)cc1Cl
CCc1ccc(S(=O)(=O)NC(=S)Nc2ccccc2)cc1
O=C(c1cc(-c2ccc(Cl)cc2)on1)N1CCOCC1
COc1ccc(NS(=O)(=O)c2ccc(NC(=O)c3ccccc3)cc2)nn1
CCNC(=O)C(=O)NCC(c1cccs1)S(=O)(=O)c1ccc(C)cc1 (stereo unspecified)
COc1ccc(OCc2cc(C(=O)N3CCC(c4ccccc4)CC3)no2)c(Cl)c1
CN/S(=N/S(=O)(=O)c1ccccc1)c1ccc(C)cc1 (stereo unspecified)
Nc1ncnc(Nc2ccc(S(N)(=O)=O)cc2)n1
Fc1ccc(NC(=S)Nc2cccc3ccccc23)cc1
O=C(Nc1cccc(Cl)c1)OCCOCCOC(=O)Nc1cccc(Cl)c1
